From US20210100247A1, “HARMFUL ORGANISM CONTROL METHOD AND HARMFUL ORGANISM CONTROL COMPOSITION” (priority 2018, published 2021)
Where “and” joins values, the source holds several entries; their conditions need not be identical. Equal entries are not always repeated. Where two headings read alike, the source gives them in different places. For at least one compound, name, drawing or mass did not settle the structure.

Tested on: Tetranychus urticae
Settings: adults, 3 days after spraying
Experimental: Effecacy Confirmation Test on Tetranychus urticae
Eight or ten adult female Tetranychus urticae mites were inoculated on the kidney bean leaves placed in petri dishes on the day before treating with the chemical solutions.
A flowable agent containing the compound A was diluted with a solution obtained by diluting Rabiden 3S 5,000 times in water to prepare a chemical solution A containing the compound A in which the concentration of the compound A is twice the concentration shown in Tables 1 to 4.
A preparation product containing the compound B was diluted with a solution obtained by diluting Rabiden 3S 5,000 times in water to prepare a chemical solution B containing the compound B in which the concentration of the compound B is twice the concentration shown in Tables 1 to 4. […]

With CCCOc1cc(C(F)(F)F)ccc1O[C@H]1C[C@H]2CCC[C@@H](C1)N2Oc1ccc(C(F)(F)F)cn1 [acynonapyr, 3-endo-[2-propoxy-4-(trifluoromethyl)phenoxy]-9-[5-(trifluoromethyl)-2-pyridyloxy]-9-azabicyclo[3.3.1] nonan] the “Corrected Adult Insect Mortality Rate Measured Value” (single component 1.6 ppm) was 38% and 13% and the “Corrected Adult Insect Mortality Rate Measured Value” (single component 2.0 ppm) was 0% and 20%.
